# Data taken from ChEMBL document CHEMBL4316593 (Eur J Med Chem, 2019).
# Further values from the same series stand in other lists.
# Experiments:
# Assay type in all cases: cell-based
# Settings in all cases: U-87MG ATCC
# [1] = Inhibition of RTK/PI3K/AKT/mTOR signaling in human U87 cells assessed as down regulation of CA2 gene expression at cytotoxic IC50 measured after 48 hrs relative to control
# [2] = Inhibition of RTK/PI3K/AKT/mTOR signaling in human U87 cells assessed as down regulation of FAM102B gene expression at cytotoxic IC50 measured after 48 hrs relative to control
# [3] = Inhibition of RTK assessed as Inhibition of RTK/PI3K/AKT/mTOR signaling in human U87 cells assessed as down regulation of JUN gene expression at cytotoxic IC50 measured after 48 hrs relative to control
# [4] = Inhibition of RTK/PI3K/AKT/mTOR signaling in human U87 cells assessed as down regulation of TAF9 gene expression at cytotoxic IC50 measured after 48 hrs relative to control
# [5] = Inhibition of RTK/PI3K/AKT/mTOR signaling in human U87 cells assessed as down regulation of ZNF274 gene expression at cytotoxic IC50 measured after 48 hrs relative to control
# [6] = Inhibition of RTK/PI3K/AKT/mTOR signaling in human U87 cells assessed as down regulation of SEC14L2 gene expression at cytotoxic IC50 measured after 48 hrs relative to control
# [7] = Inhibition of RTK/PI3K/AKT/mTOR signaling in human U87 cells assessed as down regulation of PRMT9 gene expression at cytotoxic IC50 measured after 48 hrs relative to control
# [8] = Inhibition of RTK/PI3K/AKT/mTOR signaling in human U87 cells assessed as down regulation of CSNK2A2 gene expression at cytotoxic IC50 measured after 48 hrs relative to control
# [9] = Inhibition of RTK/PI3K/AKT/mTOR signaling in human U87 cells assessed as down regulation of VPS16 gene expression at cytotoxic IC50 measured after 48 hrs relative to control
# [10] = Inhibition of RTK/PI3K/AKT/mTOR signaling in human U87 cells assessed as down regulation of RNF10 gene expression at cytotoxic IC50 measured after 48 hrs relative to control
# [11] = Inhibition of RTK/PI3K/AKT/mTOR signaling in human U87 cells assessed as down regulation of SPAG5 gene expression at cytotoxic IC50 measured after 48 hrs relative to control
# [12] = Inhibition of RTK/PI3K/AKT/mTOR signaling in human U87 cells assessed as down regulation of RPA2 gene expression at cytotoxic IC50 measured after 48 hrs relative to control
# [13] = Inhibition of RTK/PI3K/AKT/mTOR signaling in human U87 cells assessed as down regulation of RALGAPB gene expression at cytotoxic IC50 measured after 48 hrs relative to control
# [14] = Inhibition of RTK/PI3K/AKT/mTOR signaling in human U87 cells assessed as down regulation of ERN1 gene expression at cytotoxic IC50 measured after 48 hrs relative to control
# [15] = Inhibition of RTK/PI3K/AKT/mTOR signaling in human U87 cells assessed as down regulation of SFPQ gene expression at cytotoxic IC50 measured after 48 hrs relative to control
# [16] = Inhibition of RTK/PI3K/AKT/mTOR signaling in human U87 cells assessed as down regulation of CDC42BPB gene expression at cytotoxic IC50 measured after 48 hrs relative to control
# [17] = Inhibition of RTK/PI3K/AKT/mTOR signaling in human U87 cells assessed as up regulation of LEMD1 gene expression at cytotoxic IC50 measured after 48 hrs relative to control
# [18] = Inhibition of RTK/PI3K/AKT/mTOR signaling in human U87 cells assessed as up regulation of RAB29 gene expression at cytotoxic IC50 measured after 48 hrs relative to control
# [19] = Inhibition of RTK/PI3K/AKT/mTOR signaling in human U87 cells assessed as up regulation of Kruppel like factor 11 gene expression at cytotoxic IC50 measured after 48 hrs relative to control
# [20] = Inhibition of RTK/PI3K/AKT/mTOR signaling in human U87 cells assessed as up regulation of exosome component 5 gene expression at cytotoxic IC50 measured after 48 hrs relative to control
# [21] = Inhibition of RTK/PI3K/AKT/mTOR signaling in human U87 cells assessed as up regulation of peroxisome proliferator activated receptor gamma gene expression at cytotoxic IC50 measured after 48 hrs relative to control
# [22] = Inhibition of RTK/PI3K/AKT/mTOR signaling in human U87 cells assessed as up regulation of RAB34, member RAS oncogene family gene expression at cytotoxic IC50 measured after 48 hrs relative to control
# [23] = Inhibition of RTK/PI3K/AKT/mTOR signaling in human U87 cells assessed as up regulation of alkB homolog 7 gene expression at cytotoxic IC50 measured after 48 hrs relative to control
# [24] = Inhibition of RTK/PI3K/AKT/mTOR signaling in human U87 cells assessed as up regulation of BAH domain and coiled-coil containing 1 gene expression at cytotoxic IC50 measured after 48 hrs relative to control
# [25] = Inhibition of RTK/PI3K/AKT/mTOR signaling in human U87 cells assessed as up regulation of leptin receptor overlapping transcript gene expression at cytotoxic IC50 measured after 48 hrs relative to control
# [26] = Inhibition of RTK/PI3K/AKT/mTOR signaling in human U87 cells assessed as up regulation of cyclin dependent kinase 18 gene expression at cytotoxic IC50 measured after 48 hrs relative to control
# [27] = Inhibition of RTK/PI3K/AKT/mTOR signaling in human U87 cells assessed as up regulation of reticulon 3 gene expression at cytotoxic IC50 measured after 48 hrs relative to control
# [28] = Inhibition of RTK/PI3K/AKT/mTOR signaling in human U87 cells assessed as up regulation of calponin 3 gene expression at cytotoxic IC50 measured after 48 hrs relative to control
# [29] = Inhibition of RTK/PI3K/AKT/mTOR signaling in human U87 cells assessed as up regulation of CST telomere replication complex component 1 gene expression at cytotoxic IC50 measured after 48 hrs relative to control
# [30] = Inhibition of RTK/PI3K/AKT/mTOR signaling in human U87 cells assessed as up regulation of zinc finger protein 664 gene expression at cytotoxic IC50 measured after 48 hrs relative to control
# [31] = Inhibition of RTK/PI3K/AKT/mTOR signaling in human U87 cells assessed as up regulation of TMEM132A gene expression at cytotoxic IC50 measured after 48 hrs relative to control
# [32] = Inhibition of RTK/PI3K/AKT/mTOR signaling in human U87 cells assessed as up regulation of SLC25A3 gene expression at cytotoxic IC50 measured after 48 hrs relative to control
smiles,measurement,setting,value
CC(=O)C(=NNc1ccccc1C#N)C(C)=O,log2FC,[1],-3.77
same,log2FC,[2],-2.26
same,log2FC,[3],-1.67
same,log2FC,[4],-1.38
same,log2FC,[5],-1.26
same,log2FC,[6],-0.891
same,log2FC,[7],-0.884
same,log2FC,[8],-0.864
same,log2FC,[9],-0.858
same,log2FC,[10],-0.724
same,log2FC,[11],-0.716
same,log2FC,[12],-0.681
same,log2FC,[13],-0.664
same,log2FC,[14],-0.653
same,log2FC,[15],-0.521
same,log2FC,[16],-0.459
same,log2FC,[17],3.14
same,log2FC,[18],1.82
same,log2FC,[19],1.5
same,log2FC,[20],1.45
same,log2FC,[21],1.16
same,log2FC,[22],1.15
same,log2FC,[23],1.1
same,log2FC,[24],1.1
same,log2FC,[25],1.08
same,log2FC,[26],1.04
same,log2FC,[27],0.827
same,log2FC,[28],0.808
same,log2FC,[29],0.712
same,log2FC,[30],0.674
same,log2FC,[31],0.604
same,log2FC,[32],0.486
